Test results as given in patent US12263177B2, “Biologically active ganoderma lucidum compounds and synthesis of anticancer derivatives; ergosterol peroxide probes for cellular localization” (priority 2019, dated 2025).
Some entries share one result that the patent states for a list of compounds. For at least one compound, name, drawing or mass did not settle the structure. Some ranges recur; such a range may be that of the whole group of compounds.

Columns and labels:
[1] = test system: various breast cancer cell lines; test: Cell viability assay, breast cancer cell line panel; assay type: cell-based; conditions: 72-h treatment
[2] = test system: MCF-7 breast cancer cells; test: Reactive oxygen species (ROS) measurement, CellROX; assay type: cell-based, human
Experimental: Live-cell CellROX® assays for oxidative stress detection were conducted to evaluate whether GA-01, ergosterol, 5-6-dihydroergosterol and EP trigger intrinsic apoptosis pathways by inducing ROS. […] Menadione or t-Butyl hydrogen peroxide (TBHP) were positive controls (FIGS. 7 and S5) and co-treated with N-acetyl cysteine (NAC) to confirm that the signal was due to ROS formation induced by the compound. […] Furthermore, the possibility of the endoperoxide motif to react with NAC, was assessed EP was incubated with NAC in DMSO for 24 h at 37° C. […] Thus, the ability of EP to induce ROS could potentially be via a different mechanism from that of TBHP in MCF-7 cells.
The mRuby-Mito-7 plasmid was obtained from Addgene (#55874 from Michael Davidson). A stable clone of MCF-7 was generated by using Fugene 6 (Roche) to transfect cells (2×10^5) with plasmid (2.0 μg) under neomycin selection. A stable cell line was selected by using G418 (300 μg/mL) for 2 weeks, sorted by flow cytometry, and maintained under G418 thereafter. Transfected MCF-7 cells were plated at a density of 2×10^4 cells/well in black 96-well clear bottom tissue culture plates and incubated overnight at 37° C. […] Fluorescence intensity was measured in a Clariostar® plate reader (BMG LABTECH, Cary, NC) at 535 nm.

## C[C@H](CC(=O)C[C@@H](C)[C@H]1C[C@H](O)[C@@]2(C)C3=C(C(=O)C[C@]12C)[C@@]1(C)CCC(=O)C(C)(C)[C@@H]1C[C@@H]3O)C(=O)O [GA-01, ganoderic acid A]
[1]
  EC50: > 50 µM
[2]
  ROS increase, fold: ≥ 2 fold
[2]; not statistically significant for the GLE compounds
  ROS formation reduction when co-treated with NAC: 9-25%
